Article PMC10397319, “The phosphatidylinositol (4,5)-bisphosphate-Rab35 axis regulates migrasome formation” (Cell Research, 2023)
No constants are given. Whether binding was seen depends on the method and setting. Binding seen in cells or lysates may run through a third protein.

Sequences of proteins named here, by UniProt entry; tags and fusion partners are left off. Residues count along the entry.
UniProt P08648, residues 42-1049: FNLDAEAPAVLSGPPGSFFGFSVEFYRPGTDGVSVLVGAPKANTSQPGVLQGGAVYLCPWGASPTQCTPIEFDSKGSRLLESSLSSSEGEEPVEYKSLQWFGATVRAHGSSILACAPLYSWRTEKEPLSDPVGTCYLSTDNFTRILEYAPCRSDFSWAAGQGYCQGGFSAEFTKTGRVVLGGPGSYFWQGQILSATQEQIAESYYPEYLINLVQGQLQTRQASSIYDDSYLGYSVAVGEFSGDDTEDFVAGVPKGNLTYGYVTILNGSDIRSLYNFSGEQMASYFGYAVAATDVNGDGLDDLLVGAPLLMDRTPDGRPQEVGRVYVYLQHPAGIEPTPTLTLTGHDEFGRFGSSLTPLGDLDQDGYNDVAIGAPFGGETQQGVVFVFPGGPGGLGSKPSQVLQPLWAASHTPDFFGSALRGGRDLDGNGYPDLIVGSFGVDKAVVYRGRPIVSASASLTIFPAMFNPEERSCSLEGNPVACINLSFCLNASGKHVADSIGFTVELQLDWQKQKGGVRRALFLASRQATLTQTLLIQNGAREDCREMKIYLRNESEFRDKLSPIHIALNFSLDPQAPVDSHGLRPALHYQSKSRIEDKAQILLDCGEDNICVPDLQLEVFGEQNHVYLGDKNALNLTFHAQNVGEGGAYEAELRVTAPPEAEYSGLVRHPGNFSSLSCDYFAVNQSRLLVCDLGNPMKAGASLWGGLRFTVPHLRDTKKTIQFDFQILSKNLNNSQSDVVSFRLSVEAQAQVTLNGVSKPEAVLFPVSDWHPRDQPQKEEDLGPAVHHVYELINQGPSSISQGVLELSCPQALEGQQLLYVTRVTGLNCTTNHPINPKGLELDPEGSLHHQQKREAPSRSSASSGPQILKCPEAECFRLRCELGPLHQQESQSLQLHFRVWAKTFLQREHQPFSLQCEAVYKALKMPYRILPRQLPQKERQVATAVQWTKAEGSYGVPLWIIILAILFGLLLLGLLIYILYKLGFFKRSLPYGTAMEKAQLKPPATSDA
UniProt Q5U316: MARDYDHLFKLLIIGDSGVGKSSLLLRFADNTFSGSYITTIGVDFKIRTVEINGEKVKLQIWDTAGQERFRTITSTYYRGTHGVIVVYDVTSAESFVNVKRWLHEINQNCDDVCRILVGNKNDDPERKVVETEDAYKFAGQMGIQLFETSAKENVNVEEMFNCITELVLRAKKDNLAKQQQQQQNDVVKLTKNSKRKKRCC

Target: integrin α5 (as used in co-immunoprecipitation) (UniProt P08648)
Assay: co-IP; co-immunoprecipitation/western blotting; no details given, told only in the discussion

binding: no binding
Substance: Rab35 (as used in co-immunoprecipitation) (from UniProt Q5U316 1-201)
